Data reported in patent publication US9765295B2, “Composition for culturing sanal and sanal culturing method using the same” (Samsung Electronics Co., Ltd., priority 2014, dated 2017).

Test: Assaying adrenalin and noradrenaline in primo fluid, urine, blood plasma and lymphatic fluid (Epinephrine/Norepinephrine ELISA Kit)
Parameters: species or system rat
Settings: for concentration in primo fluid: endogenous level, FIG. 4 / FIG. 5; for concentration in primo fluid relative to concentration in blood plasma: primo fluid vs blood plasma; for concentration in primo fluid relative to concentration in lymphatic fluid: primo fluid vs lymphatic fluid; for concentration in primo fluid relative to concentration in urine: primo fluid vs urine

## CNCC(O)c1ccc(O)c(O)c1 (centres unmarked) [adrenalin]
  concentration in primo fluid: about 78 ng/mL
  concentration in primo fluid relative to concentration in blood plasma: at least 15 times
  concentration in primo fluid relative to concentration in lymphatic fluid: at least about four times
  concentration in primo fluid relative to concentration in urine: at least 15 times

## NC[C@H](O)c1ccc(O)c(O)c1 [noradrenaline]
  concentration in primo fluid: about 138 ng/mL
  concentration in primo fluid relative to concentration in blood plasma: at least 6.5 times
  concentration in primo fluid relative to concentration in lymphatic fluid: at least about four times
  concentration in primo fluid relative to concentration in urine: at least 13 times
